Test results reported in patent publication US20040234981A1, “Method of determining dna base sequence” (priority 2001, published 2004).

B1: T7 RNA polymerase F644Y/Δ2: T7 RNA polymerase F644Y deficient in amino acids 172 and 173 and 178 through 180; plasmid pT7RF644Y/Δ2 (protein, UniProt P00573 1-883, looked up, variant F644Y del172-173 del178-180)
T7 RNA polymerase: MNTINIAKNDFSDIELAAIPFNTLADHYGERLAREQLALEHESYEMGEARFRKMFERQLKAGEVADNAAAKPLITTLLPKMIARINDWFEEVKAKRGKRPTAFQFLQEIKPEAVAYITIKTTLACLTSADNTTVQAVASAIGRAIEDEARFGRIRDLEAKHFKKNVEEQLNVGHVAFMQVVEADMLSKGLLGGEAWSSWHKEDSIHVGVRCIEMLIESTGMVSLHRQNAGVVGQDSETIELAPEYAEAIATRAGALAGISPMFQPCVVPPKPWTGITGGGYWANGRRPLALVRTHSKKALMRYEDVYMPEVYKAINIAQNTAWKINKKVLAVANVITKWKHCPVEDIPAIEREELPMKPEDIDMNPEALTAWKRAAAAVYRKDKARKSRRISLEFMLEQANKFANHKAIWFPYNMDWRGRVYAVSMFNPQGNDMTKGLLTLAKGKPIGKEGYYWLKIHGANCAGVDKVPFPERIKFIEENHENIMACAKSPLENTWWAEQDSPFCFLAFCFEYAGVQHHGLSYNCSLPLAFDGSCSGIQHFSAMLRDEVGGRAVNLLPSETVQDIYGIVAKKVNEILQADAINGTDNEVVTVTDENTGEISEKVKLGTKALAGQWLAYGVTRSVTKRSVMTLAYGSKEYGFRQQVLEDTIQPAIDSGKGLMFTQPNQAAGYMAKLIWESVSVTVVAAVEAMNWLKSAAKLLAAEVKDKKTGEILRKRCAVHWVTPDGFPVWQEYKKPIQTRLNLMFLGQFRLQPTINTNKDSEIDAHKQESGIAPNFVHSQDGSHLRKTVVWAHEKYGIESFALIHDSFGTIPADAANLFKAVRETMVDTYESCDVLADFYDQFADQLHESQLDKMPALPAKGNLNLRDILESDFAFA

Test system: pBluescriptII DNA
Test: Transcriptional sequencing with mutant enzyme, gel images and base calls (ABI 377 XL)
Format: biochemical
Settings: 50 units enzyme, 60 min, 37° C, FIG. 4
Protocol: The reaction conditions conformed to the method described by Sasaki et al. (Sasaki, N., et al., Gene, 222 (1): 17-24 (1998)). That is, employing plasmid pBluescriptII DNA having a promoter for T7RNA polymerase as template, an in vitro transcription reaction was conducted for 60 min while maintaining 37° C. The unreacted dye terminator remaining in the reaction product following the reaction was removed, and analysis was conducted with an ABI PRISM 377XL DNA sequencer. […] However, when T7 RNA polymerase F644Y/Δ2 was employed, individual sharp RNA separation images were obtained for the transcription products and there was little noise. […]
The transcriptional sequencing reaction was conducted in accordance with the method of Sasaki et al. (Sasaki, N., et al. Gene, 222(1): 17-24 (1998)). […] The dried product was dissolved in 6 μL of formamide/EDTA/Bluedextran loading buffer according to Version 1.0 of the instruction manual of an ABI Prism 377XL DNA Sequencer made by Perkins Elmer Japan, Ltd. and 2 μL thereof were analyzed by the ABI Prism 377XL DNA Sequencer. […] Since noise was low in base sequence analysis, this property made it possible to anticipate that the length of bases that it would be possible to read in a single reaction with an accurate base call would increase. […]

Row | Molecule | Noise in separation of RNA fragments (gel image)
1 | T7 RNA polymerase F644Y: mutant T7 RNA polymerase, tyrosine substituted for phenylalanine at residue 644; plasmid pT7RF644Y | high level of noise; also recorded: the noise level was high
2 | B1 | little noise; also recorded: noise was low

Entries after “also recorded” stand apart in the source; their conditions may differ.
